PMC10858049
Residue numbers refer to the chain shown, from its start. Where two headings read alike, the source gives them in different places. These are yes or no findings as the source states them, for the method shown. In cells and extracts the contact can be indirect. Some binding calls cover weakened binding; strength is not graded here. Tags and fused reporters may be left off the sequences shown. One block for each molecule: values may come before it.

By UniProt entry, the sequences of proteins in these tests, tags left out.
UniProt Q9CAR4: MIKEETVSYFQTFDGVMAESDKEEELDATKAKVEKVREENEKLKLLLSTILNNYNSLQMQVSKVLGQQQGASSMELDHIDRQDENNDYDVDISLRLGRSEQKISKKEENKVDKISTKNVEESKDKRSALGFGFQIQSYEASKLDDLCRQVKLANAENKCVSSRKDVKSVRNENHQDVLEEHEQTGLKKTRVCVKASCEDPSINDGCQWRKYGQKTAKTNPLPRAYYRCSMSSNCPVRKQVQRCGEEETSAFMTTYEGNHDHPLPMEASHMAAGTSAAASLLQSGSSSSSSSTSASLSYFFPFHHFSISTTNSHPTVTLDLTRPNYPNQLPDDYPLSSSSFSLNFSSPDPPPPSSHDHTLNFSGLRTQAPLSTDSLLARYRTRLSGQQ

Legend:
[1] = target: T1, GFP-UVR8^S402A, transiently expressed in Nicotiana benthamiana leaves (Arabidopsis) (UniProt Q9FN03); assay: co-IP; proteins transiently co-expressed in N. benthamiana leaves; with or without supplementary UV-B for 3 h; GFP-UVR8 forms immunoprecipitated, partners detected by western blot
T1 sequence: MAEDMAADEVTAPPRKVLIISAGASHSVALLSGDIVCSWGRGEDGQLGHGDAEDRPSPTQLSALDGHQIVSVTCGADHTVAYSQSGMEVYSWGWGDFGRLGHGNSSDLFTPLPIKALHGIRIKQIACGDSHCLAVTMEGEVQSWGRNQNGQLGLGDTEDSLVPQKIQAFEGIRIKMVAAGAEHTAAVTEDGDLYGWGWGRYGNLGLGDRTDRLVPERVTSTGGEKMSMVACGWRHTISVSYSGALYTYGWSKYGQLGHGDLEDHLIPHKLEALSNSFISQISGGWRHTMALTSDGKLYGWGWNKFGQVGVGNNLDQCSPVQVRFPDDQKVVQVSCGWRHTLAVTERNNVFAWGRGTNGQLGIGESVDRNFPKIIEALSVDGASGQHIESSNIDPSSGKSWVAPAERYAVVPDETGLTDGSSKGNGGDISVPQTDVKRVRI

[2] = target: T2, GFP-UVR8^S402D, transiently expressed in Nicotiana benthamiana leaves (Arabidopsis) (UniProt Q9FN03); assay: as above
T2 sequence: T1 sequence with A402D

[3] = target: T3, GFP-UVR8, transiently expressed in Nicotiana benthamiana leaves (Arabidopsis) (UniProt Q9FN03); assay: as above
T3 sequence: T1 sequence with A402S

[4] = target: T4, GFP-UVR8 (UV … LOCUS 8 fused to GFP), expressed in Arabidopsis uvr8-1 plants (Arabidopsis), Q9FN03; assay: co-IP; GFP-Trap immunoprecipitation of GFP-UVR8 forms from protein extracts of 14-day old uvr8-1 transgenic Arabidopsis plants; white light, with or without supplementary 3.0 µmol m^-2 s^-1 UV-B; co-precipitated endogenous COP1, RUP1 and RUP2 detected by western blot; conditions: remark: other sources report otherwise
T4 chain: T1 sequence with A402S

[5] = target: T5, GFP-UVR8^S402D, expressed in Arabidopsis uvr8-1 plants (Arabidopsis) (UniProt Q9FN03); assay: as above
T5 sequence: T1 sequence with A402D

[6] = target: T6, GFP-UVR8^S402A, expressed in Arabidopsis uvr8-1 plants (Arabidopsis) (UniProt Q9FN03); assay: as above
T6 sequence: T1 sequence

[7] = target: T2, GFP-UVR8^S402D, transiently expressed in Nicotiana benthamiana leaves (Arabidopsis); assay: co-IP; proteins transiently co-expressed in N. benthamiana leaves; with or without supplementary UV-B for 3 h; GFP-UVR8 forms immunoprecipitated, partners detected by western blot; remark: listed apart in the source
[8] = target: T7, GFP-UVR8^S402D, expressed in HEK293T cells (Arabidopsis) (UniProt Q9FN03); assay: co-IP; HEK293T cells co-transfected with a GFP-UVR8 fusion and a HA-RUP/COP1 fusion; exposed or not to 0.1 µmol m^-2 s^-1 UV-B for 4 h; lysate (150 mM NaCl, 1% Triton X-100, 50 mM Tris HCl pH 8.0) incubated with GFP-Trap beads at 4 °C for 30 min
T7 sequence: T1 sequence with A402D

[9] = target: T8, GFP-UVR8 (UV … LOCUS 8 fused to GFP), expressed in Arabidopsis uvr8-1 plants (Arabidopsis) (UniProt Q9FN03); assay: co-IP; GFP-Trap immunoprecipitation of GFP-UVR8 forms from protein extracts of 14-day old uvr8-1 transgenic Arabidopsis plants; white light, with or without supplementary 3.0 µmol m^-2 s^-1 UV-B; co-precipitated endogenous COP1, RUP1 and RUP2 detected by western blot
T8 sequence: T1 sequence with A402S

B1: REPRESSOR OF UV-B PHOTOMORPHOGENESIS 1 (RUP1), endogenous in Arabidopsis plants, Q9LTJ6 1-385 (protein)
chain: MEALFCSEIPNNNIRSSINDLSSSSSYTWPMIMTSSSSSSSSPTIMNIENIPRCDWDLSLSAVVSSASTGSDAIGAIEFDPTGEIIATGGIARKIRSYRLSSLLESRDDHVTASESYICTPAKLSSLKWRPDFSGRVIGSGDYDGVVTEYDVEKQVPVSERDEHGGRRIWSVDYTLYNGSLIGASGSDDGTVQMWDPRNGGTLEETVRPGGGAAICSVEFDPFGGSSIAVGCADRNAYVYDIRRLVDPLIVLDGHTKTVTYARFMDSHTIVTGSTDGSLKQWDIDNGRRVVRTYRGHVNSRNFVGLSVWRHGGLVVSGSENNQVFVYDKRWEEPVWVCGLGHTNRFGSDRRFVSSVCLRQVDEDWCTLVAGGSDGALEIFSGKQS
binding [4]: binds

B2: REPRESSOR OF UV-B PHOTOMORPHOGENESIS 1 (RUP1), endogenous in Arabidopsis plants (protein, UniProt Q9LTJ6 1-385)
chain: B1 chain
binding [5]: binds
binding [6]: binds

B3: RUP2, transiently expressed in Nicotiana benthamiana leaves (protein, UniProt Q9FFA7 1-368)
chain: MNTLHPHKQQQEQAQQQEEARYEWDLSLSTVVSSSSSSASDVIGAIEFDPTDNIVATAGISRKIRFYGLPSLLRNNAVSGTGVSFVDQATACEYYICTPAKLSSLRWRPGSGGRVIGSGDYDGVVMEYDLEKRTPVFERDEHGGRRVWSVDYTRHGGASTVGASGSDDGTMQVWDPRCPPEESVGVVRPAGICRSAVCCVEFDPSGGPAVAVGCADRKGYVYDIRKLVDPALTLQGHTKTVSYVRFLDGGTVVTAGTDGCLKLWSVEDGRVIRTYEGHVNNRNFVGLSVWRNGALFGCGSENNRVFVYDRRWGKPVWVDGFEPVGMNSGSDKRFVSSVCWRQSGVDQCTLVAGGSDGVLQVYVGKRKP
binding [7]: binds

B5: REPRESSOR OF UV-B PHOTOMORPHOGENESIS 2 (RUP2), endogenous in Arabidopsis plants (protein, UniProt Q9FFA7 1-368)
chain: B3 chain
binding [9]: binds
binding [5]: binds
binding [6]: binds

The next lines start with the values.

binding [1]: binds
binding [2]: binds
binding [3]: binds
Molecule: GST-WRKY36 (WRKY DNA-BINDING PROTEIN 36 fused to GST), transiently expressed in Nicotiana benthamiana leaves (from UniProt Q9CAR4 1-387)

binding [8]: binds
B4: HA-RUP2, expressed in HEK293T cells (protein, UniProt Q9FFA7 1-368)
chain: B3 chain
